# No constants are given. Whether binding was seen depends on the method and setting. A result given as binding can be weak or reduced; the word gives no strength.
# Molecular target: BK virus VP1 protein, genotype I (BK virus)
# Assay: flow cytometry on cells transfected with genotype 1 VP1, wild type and mutants
row,Binder,binding
1,"2B9 (antibody, V domains shown) VH: EVQLLESGGGLAQPGKSLRLSCAASGFTFSGFAMSWVRQAPGKGLEWVSGISGSGDITYYADSVKGRFTISRDNSKSTLYLQMNSLGAEDTAVYYCAKDPYNWNHGVYGMDVWGQGTTVTVSS VL: DIQMTQSPSSLSASVGDRVTITCRASQSISSYLNWYQQKPGKAPKFLIYGASSLQSGVPSRFSGSGSGTDFTLTISSLQPEDFAAYYCQQSFNAPLTFGGGTKVEIK",binds

# Molecular target: BK virus VP1 protein, genotype I (BK virus)
# Assay: flow cytometry on cells transfected with genotype 1 VP1; wild type is the reference for the mutants
row,Binder,binding
1,"14F5 (antibody, V domains shown) VH: EVQLLESGGGLVQPGGSLRLSCAVSGFTFSSFAMSWVRQAPGKGLEWVSGISASGGTTNYADSVKGRFTISRDNSKNTLYLQMSSLRAEDTAEYYCAKDRFLEWVEGFDPWGQGILVTVSP VL: DIQMTQSPSSLSASVGDRVTITCRASQSIGRFLIWYQQKPGKAPKLLLYATSSLQSGVPARFTGSGSGTDFTLTIGSLQPEDFATYYCQQSYITPLTFGGGTKVEIK",binds
2,"2F7 (antibody, V domains shown) VH: QVQLVESGGGLVKPGGSLRLSCVASGFTFSDYYMNWIRLPPGRGLQWISYIDSSAGAIYYADSVKGRFTVSRDDAKNSLYLQMNSLRADDTAVYYCARERRDGHKIFDWWGQGTLVTVSS VL: DIVMTQSPDSLAVSLGERATINCKSSQNILYTSNNKNYLGWYQQKAGQPPKLLIYWSSTRNSGVPDRFSGSGSGTDFTLTISSLQAEDVAVYYCHQYYSSPYTFGQGTNLEIK",binds
3,"8A11 (antibody, V domains shown) VH: QVQLVESGGDLVKPGGSLRLSCVASGFTFSDYYMNWIRLPPGKGLEWISYIDSSAGATYYADSVKGRFTVSRDDAKNSLFLHMNSLRAEDTAVYYCARERRSGHKIFDCWGPGTLVTVSS VL: DIVMTQSPDSLAVSLGERATINCKSSQNILYSSNNKNYLAWYQQKAGQPPKLLIFWSSTRESGVPDRFSGSGSGTDFTLTISSLQAEDVAVYYCQQYYSSPYNFGRGTTLEIK",binds
4,"5A8 (antibody, V domains shown) VH: QVQLVESGGDLVKPGGSLRLSCVASGFTFSDYYMNWIRLPPGRGLEWISYIDSSAGAIYYADSVKGRFTVSRDDAKKSLFLYMNSLRADDTAVYYCARERRDGHKIFDYWGPGTLVTVSS VL: DIVMTQSPDSLAVSLGERATINCKSSQNILYSSNNKNYLAWYQQKAGQPPKLLIFWSSTRESGVPDRFSGSGSGTDFTLTISSLQAEDVAVYYCHQYYSSPYNFGRGTTLEIK",binds
5,"1E2 (antibody, V domains shown) VH: QVQLVESGGDLVKPGGSLRLSCVASGFTFSDYYMNWIRLPPGKGLEWVSYIDSSAGAIYYADSVRGRFTVSRDDAKNSLFLHMNSLRADDTAVYYCARERRDGHKIFDCWGPGTLVTVSS VL: DIVMTQSPDSLAVSLGERATINCKSSQNILYSSNNKNYLAWYQQKAGQPPKLLIFWSSTRESGVPDRFSGSGSGTDFTLTINSLQAEDVAVYYCQQYYSSPYNFGRGTTLEIK",binds
6,"1H10 (antibody, V domains shown) VH: QVHLVESGGDLVKPGGSLRLSCVASGFTFSDYYMNWIRMPPGKGLEWISYIDSSAGAIYYADSVKGRFTVSRDDAKNSLFLHMNNLRADDTAVYYCARERRDGHKIFDCWGPGTLVTVSS VL: DIVMTQSPDSLAVSLGERATINCKSSQNILYSSNNKNYLAWYQQKAGQPPKLLIFWSSTRESGVPDRFSGSGSGTDFTLTISSLQAEDVAVYYCQQYYSSPYNFGRGTTLEIK",binds
7,"6H12 (antibody, V domains shown) VH: EVQLVESGGGLVQPGGSLRLSCAASGFTFSSYEMNWVRQAPGKGLEWVSYISSGGSSIKYADSVRGRFAFSRDNAENSVHLQMNSLRAEDTAVYYCARVGGSYYYSYAMDVWGQGTAVTVSS VL: DIQLTQSPSFLSASVGDRVTITCWASQDISSYLAWYQQKPGKAPKLLIYAASTLQSGVPSRFTGSGSGTEFTLTISSLQPEDFATYYCQQPHNSPFSFGPGTKVDVK",binds
8,"11D12 (antibody, V domains shown) VH: EVQLVESGGGLVQPGGSLRLSCAASGFTFSSYEMNWVRQAPGKGLEWVSYISSGGSSIKYADSVRGRFTFSRDNAENSVFLQMNSLRGEDTAVYYCARVGGSYYYSYAMDVWGQGTAVTVSS VL: DIQLTQSPSFLSASVGDRVTITCWASQDISSYLAWYQQKPGKAPKLLIYAASTLQSGVPSRFSGSGSGTEFTLTISSLQPEDFATYYCQQPNNYPFSFGPGTKVDVK",binds
9,"15C10 (antibody, V domains shown) VH: EVQLLESGGGLVQPGGSLRLSCAASGFTFSSFAMSWVRQAPGKGLEWVSGISASGGTTNYADSVKGRFTISRDNSKNTLYLQMSSLRAEDTAEYYCAKDRFLEWVEGFDPWGQGILVTVSP VL: DIQMTQSPSSLSASVGDRVTITCRASQSIGRFLIWYQQKPGKAPKLLLYATSSLQSGVPARFTGSGSGTDFTLTIGSLQPEDFATYYCQQSYITPLTFGGGTKVEIK",binds
10,"9G9 (antibody, V domains shown) VH: EVQLLESGGGLVQPGGSLRLSCAASGFTFHNYAMSWVRQAPGKGLEWVSGISGSGGTAYYADSVKGRFTISRDNSKNTLYLQMNSLRADDTALYYCAKDRFLEWVEGFDSWGQGTLVTVSS VL: DIQMTQSPSSLSASVGDRVTITCRASQSIGSFLIWYQQKPGKAPKLLIYAASSLQSGVPSRFSGSGSGTDFTLIISSLQPEDFATYYCQQSYNTPLTFGGGTKVEIK",binds
11,"7H8 (antibody, V domains shown) VH: EVQLLESGGGLVQPGGSLRLSCAASGFAFHTYDMTWVRQAPGKGLEWVSGVVGSGINTYYADSVKGRFTISRDNSKSTLYLQMNSLRAEDTAVYYCAKDSSSWFSLHYWGQGTLVTVSS VL: DIQMTQSPSTLSASVGDRVTITCRASQSISNWLAWYQQKPGKAPKLLIYKASSLESGVPSRFSGSGSGTDFTLTISSLQPDDFASYYCQQYRSYAYTFGQGTKLEIT",binds
12,"7A4 (antibody, V domains shown) VH: QVQLVESGGDLVKPGGSLRLSCVASGFTFSDYYMNWIRLPPGKGLEWISYIDSSAGAIYYADSVKGRFTVSRDDAKNSLFLHMNSLRADDTAVYYCVRERRDGHKIFDYWGPGTLVTVSS VL: DIVMTQSPDSLAVSLGERATINCKSSQNILYSSNNKNYLAWYQQKAGQPPKLLIFWSSIRESGVPDRFSGSGSGTDFTLTISSLQAEDVAVYYCQQYYSSPYNFGRGTTLEIK",binds
13,"2H1 (antibody, V domains shown) VH: QVQLVESGGDLVKPGGSLRLSCVASGFTFSDYYMNWIRLPPGKGLEWISYIDSSAGAIYYADSVKGRFTVSRDDAKNSLFLHMNSLRADDTAVYYCARERRDGHKIFDCWGPGTLVTVSS VL: DIVMTQSPDSLAVSLGERATINCKSSQNILYSSNNKNYLAWYQQKTGQPPKLLIFWSSTRESGVPDRFSGSGSGTDFTLTISSLQAEDVAVYYCQQYYSSPYNFGRGTTLEIK",binds
14,"8D10 (antibody, V domains shown) VH: QVHLVESGGDLVKPGGSLRLSCVASGFTFSDYYMNWIRLPPGKGLEWISYIDSSAGAIYYADSVKGRFTVSRDDAKNSMFLHMNSLRADDTAVYYCARERRDGHKIFDYWGPGTLVTVSS VL: DIVMTQSPDSLAVSLGERATINCKSSQNILYSSNNKNYLAWYQQKAGQPPKLLIFWSSTRESGVPDRFSGSGSGTDFTLTISSLQAEDVAVYYCQQYYSSPYNFGRGTTLEIK",binds
15,"9B4 (antibody, V domains shown) VH: QVQLVESGGDLVKPGGSLRLSCVASGFTFSDYYMNWIRLPPGKGLEWISYIDSSAGAIYYADSVKGRFTVSRDDAKNSLFLHMNSLRADDTAVYYCARERREGHKIFDFWGPGTLVTVSS VL: DIVMTQSPDSLALSLGERATINCKSSQNILYSSNNKNYLACYQQKAGQPPKLLIFWSSTRESGVPDRFSGSGSGTDFTLTISSLQAEDVAVYYCQQYYSSPYNFGRGTTLEIK",binds
16,"4F7 (antibody, V domains shown) VH: QVQLVESGGDLVKPGGSLRLSCVASGFTFSDYYMNWIRLPPGKGLEWISYIDSSAGAIYYADSVKGRFTVSRDDAKNSLFLHMNNLRADDTAVYYCARERRDGHKIFDCWGPGTLVTVSS VL: DIVMTQSPDSLAVSLGERATINCKSSQNILYSSNNKNYLAWYQQKAGQPPKLLIFWSSTRESGVPDRFSGSGSGTDFTLTISSLQAEDVAVYYCQQYYSSPYNFGRGTTLEIK",binds

# From patent US20250304658A1
